In all, about 300,000 compounds went through this assay and about 3,700 (1.2%) were called active. Inconclusive means that the source gave no clear call. Such entries were picked first, then a sample of the others. Calls come from the whole dose curve; tested in HEK293 cells. Potencies of inconclusive entries are doubtful fits and often do not repeat.
Experiment: qHTS for Inhibitors of binding or entry into cells for Lassa Virus; note: nearly all actives have a fitted effect of over 50% in size
Conditions: Lassa virus pseudotype entry inhibition, cell reporter; series mostly up to 37.9 µM
Potency is the fitted concentration of half-maximal effect.

Structure (SMILES)	Potency
O=C(Cc1c[nH]c2ccccc12)OCCOC(=O)Cc1c[nH]c2ccccc12	inconclusive: 13 µM [inhibitor, partial curve]
CC(=O)Nc1ccc(S(=O)(=O)NCCN2CCOCC2)cc1	inconclusive: 18.3 µM [activator, partial curve, poor fit]
COc1ccc2cc(C(C)c3nc4ccccc4c(=O)n3N)ccc2c1 (stereo not drawn)	inactive
CSc1ccc(CN2CCN(C(=O)COc3cccc(C)c3)CC2)cc1	inconclusive: 12.6 µM [inhibitor, partial curve]
Cc1cc(C)cc(NS(=O)(=O)c2ccc(-c3cc(C)no3)cc2)c1	inconclusive: 35.5 µM [inhibitor, partial curve, poor fit]
CC(C)OCCCNC(=O)c1ccc(NC(=O)C2=CSCCO2)cc1	inconclusive: 5.62 µM [activator, partial curve]
O=C(COc1cccc(C(F)(F)F)c1)Nc1ccc(S(=O)(=O)N2CCCCC2)cc1	inconclusive: 10 µM [inhibitor, partial curve, poor fit]
Cc1cccc(C(=O)Nc2scc(-c3ccc(Br)cc3)c2C(=O)O)c1	inconclusive: 3.55 µM [inhibitor, single point]
Cc1ccc(CN(CC(=O)NCc2ccccn2)S(=O)(=O)c2ccccc2)cc1	inconclusive: 20 µM [inhibitor, partial curve, poor fit]
Cc1ccc(-c2nn3c(-c4ccco4)nnc3c3ccccc23)cc1S(=O)(=O)NCC1CCCO1 (stereo not drawn)	inactive
Cc1ccc(CNC(=O)CCNS(=O)(=O)c2ccc(C)cc2)cc1	inactive
COc1cc(OC)cc(C(=O)NC(=S)N2CCN(c3ccc(C(F)(F)F)cc3[N+](=O)[O-])CC2)c1	inconclusive: 20 µM [inhibitor, partial curve, poor fit]
CCOC(=O)c1ccc(NC(=S)Nc2cccc(N)n2)cc1	inconclusive: 2.82 µM [activator, partial curve, poor fit]
Cc1onc(NC(=O)NC(=O)c2ccccc2F)c1Br	inconclusive: 11.2 µM [activator, partial curve]
O=C(Cn1nc(Cc2cccnc2)c2ccccc2c1=O)N1CCN(c2ccc(F)cc2)CC1	inconclusive: 2 µM [activator, full curve]
S=c1cn[nH]c2ccccc12	inconclusive: 7.94 µM [activator, partial curve, poor fit]
CCC(=O)N(C)CCc1cc2c(c(OC)c1/C=N/NC(=O)[C@H]1C[C@@H]1c1ccccc1)OCO2	inconclusive: 10 µM [inhibitor, partial curve, poor fit]
COc1cccc([C@@H]2Oc3ccc(OC)cc3C(=O)[C@H]2OC(=O)Nc2cc(OC)c(OC)c(OC)c2)c1	inactive
Clc1ccc(C2=Nn3c(nnc3-c3n[nH]c4c3CCC4)SC2)cc1	inconclusive: 0.891 µM [inhibitor, full curve, poor fit]
COc1cccc(-c2csc(N3CCN(Cc4ccccc4)CC3)n2)c1	inactive
Cc1c(C(O)CN2CCN(Cc3ccc4c(c3)OCO4)CC2)c2ccccc2n1C (stereo not drawn)	inconclusive: 8.2 µM [inhibitor, single point]
COc1cc2c(cc1OC)CN(C(=O)c1nn(Cc3ccccc3)c(=O)c3ccccc13)CC2	inconclusive: 22.4 µM [inhibitor, single point]

Structure (SMILES)	Potency
C=CCNc1ncnc2c1[nH]c1ccc(Cl)cc12	active: 10 µM
COc1cccc(CNC(=O)Cn2c(=O)n3nc(-c4cccc(C)c4)nc3c3ccccc32)c1	inactive
CCCCC(=O)Nc1ccc(NC(=O)C2CC2)nc1	inactive
CN(C)/C=C1\N=C(c2ccc3c(c2)OCO3)OC1=O	inactive
O=C(CCC(=O)OCC(=O)c1ccc(-c2ccccc2)cc1)Nc1cccc(Cl)c1	inconclusive: 18.3 µM [activator, partial curve, poor fit]
COc1cc(OC)cc(C(=O)N2CCC(C(=O)c3ccc(F)cc3)CC2)c1	inconclusive: 0.126 µM [inhibitor, full curve, poor fit]
Cc1nn(C)c(C)c1NS(=O)(=O)c1ccc(N2CCCC2=O)cc1	inconclusive: 7.94 µM [inhibitor, partial curve, poor fit]
CSc1ccc(-c2nnn(Cc3ccc(Br)cc3)n2)cc1	inconclusive: 6.51 µM [activator, single point]
CCn1nnc2cc(C(=O)Nc3cc(OC)cc(OC)c3)ccc21	inconclusive: 15.8 µM [activator, single point]
CC(C(=O)NC1CCCCCC1)N(c1ccccc1)S(C)(=O)=O (stereo not drawn)	inactive
O=C(CCn1nnc2ccccc21)Nc1nnc(COc2ccc(F)cc2)s1	inactive
COc1ccc(S(=O)(=O)N2CCc3ccccc32)cc1NC(C)=O	inconclusive: 7.08 µM [inhibitor, partial curve]
COC(=O)c1ccc(OCC2c3cc(OC)c(OC)cc3CCN2C(=O)c2cccc(C)c2)cc1 (stereo not drawn)	inconclusive: 10 µM [inhibitor, partial curve, poor fit]
CCOC(=O)C(Cc1ccc(O)cc1)Nc1nc2ccccc2o1 (stereo not drawn)	inconclusive: 0.708 µM [activator, full curve, poor fit]
COc1ccc(-c2nc3ccccn3c2Cl)cc1	active: 3.55 µM
CCN(C(=O)Cc1cccs1)c1nnc(-c2cccnc2)s1	inactive
NS(=O)(=O)c1ccc(CCNC(=O)c2ccc([N+](=O)[O-])s2)cc1	inconclusive: 5.62 µM [inhibitor, single point]
Cc1ccc(C(=O)Nc2ccc(NC(=O)c3ccco3)c(C)c2)cc1	inconclusive: 35.5 µM [inhibitor, partial curve, poor fit]
COc1ccccc1-c1cc(-c2cc(Cl)ccc2O)n[nH]1	inactive
O=C1C=CC(=O)N1N(c1ccccc1)c1ccccc1	inconclusive: 11.2 µM [inhibitor, partial curve, poor fit]
Cc1cc(NC(=O)CN2C(=O)NC(C)(c3ccc(Cl)cc3Cl)C2=O)no1 (stereo not drawn)	inconclusive: 35.5 µM [inhibitor, single point]

Retrieved one by one from the list above:
Structure (SMILES)	Potency
COC(=O)c1ccc(OCC2c3cc(OC)c(OC)cc3CCN2C(=O)c2cccc(C)c2)cc1 (stereo not drawn)	inconclusive: 10 µM [inhibitor, partial curve, poor fit]
CC(=O)Nc1ccc(S(=O)(=O)NCCN2CCOCC2)cc1	inconclusive: 18.3 µM [activator, partial curve, poor fit]

From PubChem BioAssay AID540256 (National Center for Advancing Translational Sciences (NCATS), 2011)
